# The campaign covered roughly 300,000 compounds. About 5,400 (1.8%) were called active. Inconclusive means that the source gave no clear call. Such entries were picked first, then a sample of the others. Calls come from the whole dose curve; tested in HEK293 cells. A potency beside an inconclusive call is a rough fit, not a confirmed value.
# Assay: qHTS for inhibitors of binding or entry into cells for Marburg Virus
# Conditions: Marburg virus pseudotyped entry inhibition, cell reporter; series mostly up to 37.8 µM
# Potency is the fitted concentration of half-maximal effect.
row,Compound,Potency
1,CCN(CC(=O)Nc1ccccc1-c1ccccc1)Cc1nc2ccccc2c(=O)[nH]1,"inconclusive: 2.82 µM [inhibitor, full curve, poor fit]"
2,O=S(=O)(NC1CC1)c1ccc(S(=O)(=O)N2CCCc3ccccc32)cc1,"inconclusive: 18.3 µM [inhibitor, partial curve]"
3,O=C1CCCN1CC(O)CS(=O)(=O)Cc1ccccc1Cl (stereo unspecified),"inconclusive: 5.62 µM [inhibitor, single point]"
4,CC1=C(C)CC(C(=O)NNC(=O)c2csc3c2CCC(C(C)(C)C)C3)C(C(=O)O)C1 (stereo unspecified),"inconclusive: 5.62 µM [activator, single point]"
5,C=Cn1ccnc1P(=S)(c1ccc2c(c1)c1ccccc1n2CC)c1nccn1C=C,"inconclusive: 14.6 µM [inhibitor, partial curve, poor fit]"
6,O=C(Cc1cccc(F)c1)Nc1ccc2c(c1)CCC2,inactive
7,COc1cccc(NC(=O)Nc2nnc(Cc3ccc(OC)c(OC)c3)s2)c1,"inconclusive: 11.2 µM [inhibitor, single point]"
8,Cc1cc(C(F)F)n2nc(C(=O)Nc3c(F)cc(F)cc3Br)nc2n1,inactive
9,CCN(C(=O)c1cc2cc3ccc(OC)cc3nc2o1)c1cccc(C)c1,inactive
10,O=C(NC1CCCCCCC1)c1cccs1,"inconclusive: 12.6 µM [activator, partial curve]"
11,Cc1nc(SCC(=O)CC(=O)OC(C)C)c(C#N)c(C)c1C,inactive
12,CCCCC(=O)NC(c1ccc(N(CC)CC)cc1)c1ccc2cccnc2c1O (stereo unspecified),"inconclusive: 1.78 µM [inhibitor, full curve, poor fit]"
13,Cc1cc(C)cc(NC(=S)NCc2cccs2)c1,"inconclusive: 0.112 µM [activator, full curve, poor fit]"
14,O=c1c2ccc([N+](=O)[O-])cc2ncn1Cc1ccccc1C(F)(F)F,inactive
15,c1ccc(C2=Nc3cccnc3C(c3ccccc3)=NN2)cc1,"inconclusive: 25.1 µM [activator, partial curve, poor fit]"
16,NC(N)=Nc1nc(CSCC/C(N)=N\S(N)(=O)=O)cs1,inactive
17,COc1ccc(CNC(=O)c2nc(Cn3nc(C)c(Br)c3C)no2)cc1OC,"inconclusive: 8.91 µM [inhibitor, partial curve, poor fit]"
18,Cc1noc(C)c1C(=O)N1CCCC(C(=O)c2cccc(C(F)(F)F)c2)C1 (stereo unspecified),inactive
19,Cc1cc(C(=O)C(=O)O)c(C)n1-c1ccc(Cl)c(Cl)c1,"inconclusive: 0.501 µM [activator, full curve, poor fit]"
20,CCc1cccc(OCC(=O)Nc2ccc(C)c(S(=O)(=O)N3CCCCCC3)c2)c1,"inconclusive: 14.1 µM [inhibitor, single point]"
21,COc1ccc(CC(=O)Nc2cc(Cl)ccc2O)cc1,inactive
22,Cc1ccc(CNC(=O)c2cn(C)c(=O)c3c2c2ccccc2n3C)o1,inactive
23,CCCn1nc(Oc2nc(SC)nc(N(C)C)n2)ccc1=O,inactive

# Already shown: eight of the compounds above.
row,Compound,Potency
16,NC(N)=Nc1nc(CSCC/C(N)=N\S(N)(=O)=O)cs1,inactive
17,COc1ccc(CNC(=O)c2nc(Cn3nc(C)c(Br)c3C)no2)cc1OC,"inconclusive: 8.91 µM [inhibitor, partial curve, poor fit]"
18,Cc1noc(C)c1C(=O)N1CCCC(C(=O)c2cccc(C(F)(F)F)c2)C1 (stereo unspecified),inactive
19,Cc1cc(C(=O)C(=O)O)c(C)n1-c1ccc(Cl)c(Cl)c1,"inconclusive: 0.501 µM [activator, full curve, poor fit]"
20,CCc1cccc(OCC(=O)Nc2ccc(C)c(S(=O)(=O)N3CCCCCC3)c2)c1,"inconclusive: 14.1 µM [inhibitor, single point]"
21,COc1ccc(CC(=O)Nc2cc(Cl)ccc2O)cc1,inactive
22,Cc1ccc(CNC(=O)c2cn(C)c(=O)c3c2c2ccccc2n3C)o1,inactive
23,CCCn1nc(Oc2nc(SC)nc(N(C)C)n2)ccc1=O,inactive

# The list goes on.

row,Compound,Potency
1,COC(=O)c1ccc(-c2ccco2)n1Cc1cccc(C)c1,"inconclusive: 29.1 µM [activator, single point]"
2,COc1ccc(C=NNC(=S)NN=Cc2ccc(OC)c(OC)c2)cc1OC,"inconclusive: 35.5 µM [inhibitor, single point]"
3,CC(=O)c1cnc2cc(-c3ccc(Cl)cc3)nn2c1C,"inconclusive: 11.2 µM [activator, partial curve, poor fit]"
4,Clc1ccc(OCc2cc(-c3ccccc3)no2)cc1Cl,inactive
5,CCOC(=O)c1c(NS(=O)(=O)c2ccccc2)n(CCCOC)c2nc3ccccc3nc12,"inconclusive: 7.08 µM [inhibitor, partial curve, poor fit]"
6,CC(C)C1(C)C(=O)N=C2C3=C(CCCC3)C(=O)N21 (stereo unspecified),inactive
7,CCc1ccccc1NC(=O)c1ccc2c(c1)CCN2S(C)(=O)=O,"inconclusive: 28.2 µM [activator, single point]"
8,O=C(Nc1ccccc1C(F)(F)F)NC1(C(=O)N2CCOCC2)CCCCC1,inactive
9,O=C(Nc1cccc(Cl)c1)NC1CCN(C2CCCCC2)C1 (stereo unspecified),"inconclusive: 8.91 µM [inhibitor, partial curve, poor fit]"
10,NC(=O)c1ccc(N=Cc2c(O)ccc3ccccc23)cc1,"inconclusive: 35.5 µM [inhibitor, single point]"
11,CSc1ccc(/C=N/NC(=O)CN2CCN(Cc3ccc(C)cc3)CC2)cc1,inactive
12,CC(=O)Nc1ccc(SCC(=O)c2c(N)n(Cc3ccccc3)c(=O)n(C)c2=O)cc1,"inconclusive: 8.91 µM [inhibitor, partial curve, poor fit]"
13,Cc1ccc(S(=O)(=O)N2CCCCC2)cc1NC(=O)COC(=O)c1ccc(O)cc1,inactive
14,Cc1ccc(NS(=O)(=O)c2ccc(C(=O)N3CCC3)cc2)cc1,inactive
15,CC(C)(C)c1ccc(N2C(=O)CSC2c2cccnc2)cc1 (stereo unspecified),"inconclusive: 17.8 µM [inhibitor, partial curve, poor fit]"
16,S=C(NCCc1ccccn1)Nc1ccc(Cl)cc1,"inconclusive: 5.8 µM [activator, full curve, poor fit]"
17,CC1CC1C(=O)NCCc1ccc(Cl)cc1 (stereo unspecified),"inconclusive: 32.6 µM [activator, partial curve, poor fit]"
18,Cc1nn(CC(=O)NCCCN2CCCCC2C)c(=O)c2cccn12 (stereo unspecified),inactive
19,CCCCCCCc1cc2ccccc2c2c(C(=O)OC)c(C)c(C(=O)OC)n12,inconclusive: 0.0009 µM [activator]
20,COc1ccc(C(=O)Nc2ccccc2C(=O)N/N=C/c2ccccn2)cc1OC,"inconclusive: 15.8 µM [inhibitor, partial curve, poor fit]"
21,CC(C)CN(CC(C)C)CC(O)COc1ccc([N+](=O)[O-])cc1 (stereo unspecified),"inconclusive: 35.5 µM [inhibitor, single point]"
22,O=C1c2cccnc2C(=O)N1c1ccccc1-c1ccccc1,"inconclusive: 3.98 µM [activator, full curve, poor fit]"
23,COc1cc(/C=N/NC(=O)c2ccncc2)ccc1OCCN1CCCCC1,inactive
